Source: PMC5216965
Results are given in words; binding and its absence hold for the method and conditions named. Binding seen in cells or lysates may run through a third protein. Binding calls can cover weak binding; strength is not graded here.

Chains of the proteins cited; added tags and fusions are not shown. Lines headed by an entry give the natural chain unless they say otherwise; changes in a name come on top.
UniProt Q8N726: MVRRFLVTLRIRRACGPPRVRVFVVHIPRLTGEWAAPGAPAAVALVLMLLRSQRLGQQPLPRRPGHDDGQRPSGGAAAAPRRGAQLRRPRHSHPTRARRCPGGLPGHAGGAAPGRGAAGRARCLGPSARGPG
UniProt P09237: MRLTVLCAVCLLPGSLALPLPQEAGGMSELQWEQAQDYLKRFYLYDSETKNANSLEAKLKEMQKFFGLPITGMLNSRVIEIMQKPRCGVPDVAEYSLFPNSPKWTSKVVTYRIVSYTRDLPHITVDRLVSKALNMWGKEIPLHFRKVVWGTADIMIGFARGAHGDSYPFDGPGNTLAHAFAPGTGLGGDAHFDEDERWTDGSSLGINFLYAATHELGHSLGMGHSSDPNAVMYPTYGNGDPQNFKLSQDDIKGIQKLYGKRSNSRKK

Target: Myc-tagged p14^ARF (human) (UniProt Q8N726)
Test: co-IP; HEK293T cells co-transfected with GFP-MMP7 and Myc-p14^ARF; lysates collected 48 hrs post-transfection in RIPA buffer (1X PBS pH 7.4, 2 mM EDTA, 1% Triton X-100, 0.5% sodium deoxycholate, protease inhibitor); immunoprecipitated with anti-Myc or anti-GFP for 1 hr in cold room, A/G plus agarose beads, IgG as control; Western blot

binding: binds
Substance: GFP-tagged MMP7 (from UniProt P09237)
